According to article PMC9061725, “GGDEF domain as spatial on-switch for a phosphodiesterase by interaction with landmark protein HubP” (NPJ Biofilms and Microbiomes, 2022):
No constants are given. Whether binding was seen depends on the method and setting. A result given as binding can be weak or reduced; the word gives no strength. Where a sequence is shown, tags or fusion partners need not be part of it.

Biological target: FimV domain of S. putrefaciens HubP (S. putrefaciens)
Test: SEC; purified MBP-GGDEF of SoPdeB mixed with purified FimV domain, incubated at least 1 h at 4 °C, then size exclusion chromatography (Superdex 200); both purified

B1: MBP-GGDEF_(SoPdeB), GGDEF domain of S. oneidensis PdeB, wild type (domain or fragment, UniProt Q8EJM6 454-587, looked up)
chain: RSLAVCYLDLEQFKLINDSCGHTAGDRMLAMVARAIQSCLGPQELLARIGGDEFGLVICDRTALAVAQLLKQIIAQVSLQVLHDKNCNYKVGLSIGVAFGRAPYINAQELLKDADIACIAAKAKGTNQIHIYDD
notes: GGDEF (diguanylate cyclase) domain of the phosphodiesterase PdeB of Shewanella oneidensis; construct limits may stand there; The MBP tag is named for SEC, iSCAMS and pull-down; also called SoGGDEF; SoGGDEF_(PdeB); source: E. coli BL21(DE3), pET24c, purified (His Trap, SEC)
  binding: binds
